Source: publication PMC6082899
No constants are given. Whether binding was seen depends on the method and setting. Binding seen in cells or lysates may run through a third protein. Some results given as binding are weak or reduced against the parent protein; the word gives no strength.

By UniProt entry, the sequences of proteins in these tests, tags left out.
UniProt P97303: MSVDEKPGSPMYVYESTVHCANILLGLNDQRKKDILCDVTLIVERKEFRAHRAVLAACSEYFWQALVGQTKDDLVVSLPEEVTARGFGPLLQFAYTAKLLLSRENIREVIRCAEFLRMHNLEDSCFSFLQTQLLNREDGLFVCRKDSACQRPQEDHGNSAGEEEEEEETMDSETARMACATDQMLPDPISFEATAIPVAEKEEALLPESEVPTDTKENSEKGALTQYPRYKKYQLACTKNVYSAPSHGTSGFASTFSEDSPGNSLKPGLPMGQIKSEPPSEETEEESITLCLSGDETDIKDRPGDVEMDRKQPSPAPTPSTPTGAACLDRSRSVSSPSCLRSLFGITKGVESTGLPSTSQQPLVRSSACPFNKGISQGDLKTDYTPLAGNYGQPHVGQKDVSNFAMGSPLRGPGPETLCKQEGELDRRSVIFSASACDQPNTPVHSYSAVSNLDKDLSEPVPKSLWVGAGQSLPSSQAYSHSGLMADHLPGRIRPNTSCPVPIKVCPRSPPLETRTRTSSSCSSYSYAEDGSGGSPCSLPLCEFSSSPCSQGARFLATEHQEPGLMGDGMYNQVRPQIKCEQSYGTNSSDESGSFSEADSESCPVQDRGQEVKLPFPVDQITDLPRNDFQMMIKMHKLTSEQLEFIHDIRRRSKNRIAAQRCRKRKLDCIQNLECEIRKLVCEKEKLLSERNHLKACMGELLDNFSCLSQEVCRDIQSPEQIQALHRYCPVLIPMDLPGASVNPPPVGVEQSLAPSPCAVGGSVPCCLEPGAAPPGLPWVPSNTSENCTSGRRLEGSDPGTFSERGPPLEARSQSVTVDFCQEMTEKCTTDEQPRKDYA
UniProt Q9EP97: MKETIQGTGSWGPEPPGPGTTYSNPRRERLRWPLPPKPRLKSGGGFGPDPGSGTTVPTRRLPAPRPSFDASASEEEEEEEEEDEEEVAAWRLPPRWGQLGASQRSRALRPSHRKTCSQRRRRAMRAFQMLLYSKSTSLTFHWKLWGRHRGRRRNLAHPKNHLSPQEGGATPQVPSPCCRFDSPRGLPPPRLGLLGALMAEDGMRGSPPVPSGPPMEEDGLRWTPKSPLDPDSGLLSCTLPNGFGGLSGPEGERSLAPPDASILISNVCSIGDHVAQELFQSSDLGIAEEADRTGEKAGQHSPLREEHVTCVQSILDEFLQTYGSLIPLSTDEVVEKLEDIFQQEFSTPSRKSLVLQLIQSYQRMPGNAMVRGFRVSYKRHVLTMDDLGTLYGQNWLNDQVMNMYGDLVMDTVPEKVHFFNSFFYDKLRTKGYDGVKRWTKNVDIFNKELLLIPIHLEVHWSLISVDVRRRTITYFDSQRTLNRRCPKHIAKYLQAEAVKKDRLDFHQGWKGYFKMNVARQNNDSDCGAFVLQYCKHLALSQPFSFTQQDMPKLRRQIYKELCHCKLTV
UniProt Q9H4L4: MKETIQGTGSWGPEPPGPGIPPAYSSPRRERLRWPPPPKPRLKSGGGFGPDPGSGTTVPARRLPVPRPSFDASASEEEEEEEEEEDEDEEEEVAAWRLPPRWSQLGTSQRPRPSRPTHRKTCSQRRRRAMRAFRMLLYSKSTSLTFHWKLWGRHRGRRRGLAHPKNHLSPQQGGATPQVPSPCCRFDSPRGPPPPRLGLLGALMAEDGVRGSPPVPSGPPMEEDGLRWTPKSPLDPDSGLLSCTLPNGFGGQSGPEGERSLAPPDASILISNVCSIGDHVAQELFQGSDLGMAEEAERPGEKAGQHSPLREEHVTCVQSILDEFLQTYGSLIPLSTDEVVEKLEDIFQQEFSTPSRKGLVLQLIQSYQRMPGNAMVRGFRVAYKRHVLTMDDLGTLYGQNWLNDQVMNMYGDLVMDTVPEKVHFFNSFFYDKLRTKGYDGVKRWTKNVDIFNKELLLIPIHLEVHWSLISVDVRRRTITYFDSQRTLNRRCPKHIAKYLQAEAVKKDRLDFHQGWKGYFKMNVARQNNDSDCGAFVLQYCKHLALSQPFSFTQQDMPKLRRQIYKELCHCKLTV

Key:
[1] = target: BACH2, endogenous in mouse splenic Treg cells (mouse (endogenous in splenic Treg cells)) (UniProt P97303); test: co-IP; lysates of Senp3+/+Foxp3-Cre and Senp3fl/flFoxp3-Cre splenic Treg cells stimulated with anti-CD3 and anti-CD28 for 24 h; IP with anti-BACH2 antibody or control Ig; SENP3 detected by immunoblotting; RIPA buffer
[2] = target: Flag-tagged mouse BACH2 (mouse) (UniProt P97303); test: co-IP; HEK293T (legend: HEK293) cells transiently transfected with SENP3 and BACH2 expression vectors; lysed in RIPA buffer (50 mM Tris-HCl pH 7.5, 135 mM NaCl, 1% NP-40, 0.5% sodium DOC, 1 mM EDTA, 10% glycerol); IP with protein A/G-agarose beads, immunoblotting

binding [1]	binding [2]	Substance
binds	–	SENP3, endogenous in mouse splenic Treg cells (from UniProt Q9EP97 1-568) (enzyme)
–	binds	SUMO-specific protease 3 (SENP3), expressed from the pEGFP-C1 vector (from UniProt Q9H4L4 1-574) (enzyme)
